The results in this text go back to patent US5356781A (Bioscience International, Inc., priority 1986, dated 1994).

The series is described as follows: general procedure: Fmoc solid-phase peptide synthesis; polystyrene solid phase supports with acid-labile p-alkoxybenzyl alcohol C-terminal linker; hydroxybenzotriazole coupling. To be noted: whole synthesis.

Substance CAPFD4 K came in with an isolated yield of 35%.
